Among the data in PMC13483900 are binding values, retold here.

Chains of the proteins cited; added tags and fusions are not shown. Lines headed by an entry give the natural chain unless they say otherwise; changes in a name come on top.
UniProt Q2NKJ3: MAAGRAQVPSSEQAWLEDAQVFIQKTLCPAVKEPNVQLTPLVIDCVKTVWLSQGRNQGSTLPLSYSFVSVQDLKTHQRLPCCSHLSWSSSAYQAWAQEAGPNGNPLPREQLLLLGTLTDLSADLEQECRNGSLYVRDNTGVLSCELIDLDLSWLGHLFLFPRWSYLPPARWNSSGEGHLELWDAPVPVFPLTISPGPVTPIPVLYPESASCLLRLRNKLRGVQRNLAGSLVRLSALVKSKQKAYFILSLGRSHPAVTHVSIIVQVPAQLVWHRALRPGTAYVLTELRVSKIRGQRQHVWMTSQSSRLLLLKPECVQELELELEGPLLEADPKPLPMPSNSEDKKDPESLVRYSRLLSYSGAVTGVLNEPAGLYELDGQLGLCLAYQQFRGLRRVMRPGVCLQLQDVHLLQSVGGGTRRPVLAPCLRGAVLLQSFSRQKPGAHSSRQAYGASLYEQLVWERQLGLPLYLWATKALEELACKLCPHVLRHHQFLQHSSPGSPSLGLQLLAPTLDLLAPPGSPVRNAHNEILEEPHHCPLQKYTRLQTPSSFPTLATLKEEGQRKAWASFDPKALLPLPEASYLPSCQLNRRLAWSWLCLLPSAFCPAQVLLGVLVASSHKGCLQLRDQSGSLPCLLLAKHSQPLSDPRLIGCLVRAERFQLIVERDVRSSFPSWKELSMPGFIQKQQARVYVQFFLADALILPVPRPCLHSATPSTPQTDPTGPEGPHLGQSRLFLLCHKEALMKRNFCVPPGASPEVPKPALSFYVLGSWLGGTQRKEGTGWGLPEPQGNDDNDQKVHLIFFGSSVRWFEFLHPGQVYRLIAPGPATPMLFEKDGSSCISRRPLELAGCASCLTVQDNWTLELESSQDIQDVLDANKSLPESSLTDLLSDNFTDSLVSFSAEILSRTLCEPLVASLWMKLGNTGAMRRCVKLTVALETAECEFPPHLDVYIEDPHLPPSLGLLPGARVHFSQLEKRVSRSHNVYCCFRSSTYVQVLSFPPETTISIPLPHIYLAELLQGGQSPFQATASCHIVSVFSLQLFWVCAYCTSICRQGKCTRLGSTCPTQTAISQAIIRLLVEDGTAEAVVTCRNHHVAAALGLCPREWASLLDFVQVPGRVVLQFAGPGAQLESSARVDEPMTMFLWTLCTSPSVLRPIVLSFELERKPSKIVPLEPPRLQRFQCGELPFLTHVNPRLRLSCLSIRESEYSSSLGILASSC
UniProt Q9H668: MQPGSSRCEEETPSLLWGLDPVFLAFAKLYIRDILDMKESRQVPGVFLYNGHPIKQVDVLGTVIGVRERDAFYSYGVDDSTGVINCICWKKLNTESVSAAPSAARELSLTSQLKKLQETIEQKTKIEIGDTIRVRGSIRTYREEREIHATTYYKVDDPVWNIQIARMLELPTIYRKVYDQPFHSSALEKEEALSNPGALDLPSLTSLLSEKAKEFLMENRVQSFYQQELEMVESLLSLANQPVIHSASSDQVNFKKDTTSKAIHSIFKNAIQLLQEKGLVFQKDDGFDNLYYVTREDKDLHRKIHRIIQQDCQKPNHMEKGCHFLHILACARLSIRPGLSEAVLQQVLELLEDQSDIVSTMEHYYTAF
UniProt Q86WV5: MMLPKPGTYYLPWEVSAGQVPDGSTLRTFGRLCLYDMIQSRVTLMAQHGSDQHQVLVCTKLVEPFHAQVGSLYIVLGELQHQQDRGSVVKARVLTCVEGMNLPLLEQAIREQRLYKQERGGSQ
UniProt P09884: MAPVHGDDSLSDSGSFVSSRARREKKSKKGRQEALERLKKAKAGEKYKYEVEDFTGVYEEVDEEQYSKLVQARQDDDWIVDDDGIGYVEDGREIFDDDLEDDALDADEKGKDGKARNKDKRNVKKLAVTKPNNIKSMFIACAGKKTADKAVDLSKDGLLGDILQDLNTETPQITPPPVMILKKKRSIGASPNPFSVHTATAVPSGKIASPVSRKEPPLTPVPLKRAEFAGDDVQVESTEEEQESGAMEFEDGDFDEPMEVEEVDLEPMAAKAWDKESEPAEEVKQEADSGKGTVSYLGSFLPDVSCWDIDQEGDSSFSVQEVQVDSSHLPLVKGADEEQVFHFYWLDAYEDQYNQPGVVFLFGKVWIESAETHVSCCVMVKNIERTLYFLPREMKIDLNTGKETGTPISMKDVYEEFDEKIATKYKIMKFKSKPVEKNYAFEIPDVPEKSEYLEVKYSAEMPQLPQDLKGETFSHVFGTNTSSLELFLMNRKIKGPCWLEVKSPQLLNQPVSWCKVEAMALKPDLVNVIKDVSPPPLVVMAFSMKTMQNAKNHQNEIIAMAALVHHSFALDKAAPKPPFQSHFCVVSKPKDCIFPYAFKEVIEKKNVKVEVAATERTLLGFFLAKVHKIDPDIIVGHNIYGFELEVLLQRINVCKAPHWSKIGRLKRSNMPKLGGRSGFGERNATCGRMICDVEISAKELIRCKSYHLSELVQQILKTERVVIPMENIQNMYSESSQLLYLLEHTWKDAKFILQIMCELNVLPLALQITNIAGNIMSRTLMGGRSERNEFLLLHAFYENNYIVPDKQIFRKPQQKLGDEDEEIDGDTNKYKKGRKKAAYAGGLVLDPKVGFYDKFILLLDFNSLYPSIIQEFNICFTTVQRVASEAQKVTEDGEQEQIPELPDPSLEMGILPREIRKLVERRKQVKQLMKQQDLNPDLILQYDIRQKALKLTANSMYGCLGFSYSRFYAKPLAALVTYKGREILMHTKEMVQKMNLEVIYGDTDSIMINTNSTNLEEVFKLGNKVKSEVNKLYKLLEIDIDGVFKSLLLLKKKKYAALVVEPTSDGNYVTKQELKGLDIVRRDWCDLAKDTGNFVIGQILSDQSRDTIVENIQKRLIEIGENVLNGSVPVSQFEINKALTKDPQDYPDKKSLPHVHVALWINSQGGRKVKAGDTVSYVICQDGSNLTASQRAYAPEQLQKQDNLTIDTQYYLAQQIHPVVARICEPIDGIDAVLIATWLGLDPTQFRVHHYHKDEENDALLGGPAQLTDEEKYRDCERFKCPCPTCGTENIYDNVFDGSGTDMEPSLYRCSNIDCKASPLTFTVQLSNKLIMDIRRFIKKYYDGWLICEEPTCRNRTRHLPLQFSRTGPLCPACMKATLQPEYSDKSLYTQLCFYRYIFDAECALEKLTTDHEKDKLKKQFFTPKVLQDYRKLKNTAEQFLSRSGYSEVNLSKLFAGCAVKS
UniProt P54274: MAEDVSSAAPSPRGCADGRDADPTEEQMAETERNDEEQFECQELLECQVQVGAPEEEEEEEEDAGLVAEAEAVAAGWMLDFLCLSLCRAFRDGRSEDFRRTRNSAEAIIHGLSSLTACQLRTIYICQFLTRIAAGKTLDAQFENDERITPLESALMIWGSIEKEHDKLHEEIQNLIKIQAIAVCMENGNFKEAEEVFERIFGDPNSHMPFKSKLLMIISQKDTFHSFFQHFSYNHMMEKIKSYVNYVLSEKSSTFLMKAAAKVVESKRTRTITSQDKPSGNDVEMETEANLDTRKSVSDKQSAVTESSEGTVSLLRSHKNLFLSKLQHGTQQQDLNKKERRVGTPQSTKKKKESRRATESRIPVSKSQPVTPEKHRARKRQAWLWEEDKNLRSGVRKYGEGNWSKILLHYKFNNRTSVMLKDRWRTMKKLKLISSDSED

For assay [1], the target named is CST (CTC1-STN1-TEN1) (human) (UniProt Q2NKJ3+Q9H668+Q86WV5). Nature of the assay: co-purification; CST and Pol α/prim co-expressed in Hi5 insect cells by co-infection; complex purified as described (He et al, 2022); SDS-PAGE.
Assay [2] concerns the target T1, TIN2 (StrepII-TINF2, long isoform) (human) (UniProt Q9BSI4).
T1 sequence: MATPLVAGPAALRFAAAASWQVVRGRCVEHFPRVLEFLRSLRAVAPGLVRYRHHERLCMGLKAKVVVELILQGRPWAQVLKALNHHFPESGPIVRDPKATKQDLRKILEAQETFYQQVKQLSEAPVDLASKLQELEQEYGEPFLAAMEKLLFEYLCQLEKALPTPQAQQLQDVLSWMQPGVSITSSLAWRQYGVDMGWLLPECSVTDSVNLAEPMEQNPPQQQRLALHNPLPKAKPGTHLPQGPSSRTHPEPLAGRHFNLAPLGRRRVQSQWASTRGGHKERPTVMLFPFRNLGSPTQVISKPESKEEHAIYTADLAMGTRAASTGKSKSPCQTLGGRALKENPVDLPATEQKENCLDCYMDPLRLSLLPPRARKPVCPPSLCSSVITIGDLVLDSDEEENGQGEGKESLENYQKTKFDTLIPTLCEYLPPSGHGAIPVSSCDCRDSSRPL
Kind of assay: co-purification (Strep-Tactin affinity, then SEC); subunits co-expressed in Hi5 insect cells; lysate (300 mM NaCl) on Streptactin XT resin via the Strep tag on TIN2, biotin elution, Superose 6 in 50 mM HEPES-KOH pH 7.6, 300 mM NaCl, 10% glycerol, 1 mM DTT; SDS-PAGE and immunoblot of the preparations.

No constants are given. Whether binding was seen depends on the method and setting. Some binding calls cover weakened binding; strength is not graded here.

For “Polymerase α/primase (from UniProt P09884 1-1462; Q14181 1-598; P49642 1-420; P49643 1-509) (complex)”, the binding entry in assay [1] was “binds”.
For TRF1 (from UniProt P54274 1-439), in assay [2], the binding result was “binds”.
